Measurements reported in PubChem BioAssay AID1224830 (NIAID, 2016)

- Assay: 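Genes whose knock-down alters the TNF-alpha reporter response to LPS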 (primary screen)
- Cells: human THP-1 monocytic leukaemia cells, TNF dual-luciferase reporter clone, PMA-differentiated to macrophage-like cells
- Knock-down reagent: siRNA pool against human genes, 50 nM
- Duration: LPS for 4 h, given about 3 days after siRNA transfection
- Treatment: bacterial LPS (TLR4 ligand), 10 ng/ml
- Read-out: 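TNF firefly reporter luminescence divided by renilla, normalised to the plate median, then turned into a robust z-score for each replicate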
- Reading the numbers: TNF reporter robust z-score: higher = stronger TNF reporter response to LPS
- Hit rule: 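a well is active when its z-score exceeds 2.8 or falls below -1.5; control wells carry no call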
Here is one part, drawn at random, of about 18,000 reagents tested. Over the whole deposit, about 2,900 (16%) were called active. 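Calls are made per well; low scores hint the gene aids the LPS response, high scores that it dampens it.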 A number with no mark means an inactive call. Repeated entries: four replicate wells of each siRNA pool. Reagent sequences are not shown.

gene | TNF reporter robust z-score
LAT2 | -0.99
LAT2 | -1.03
LAT2 | -1.33
LAT2 | -0.3
ATP6V1G2 | 0.55
ATP6V1G2 | 0.85
ATP6V1G2 | 1.15
ATP6V1G2 | 2.39
WFDC5 | -0.28
WFDC5 | 0.03
WFDC5 | -0.21
WFDC5 | -1.04
MED25 | 0.04
MED25 | -0.06
MED25 | -0.36
MED25 | -0.34
HK2 | 0.79
HK2 | -0.97
HK2 | -0.82
HK2 | -0.35
DCD | -1.02
DCD | -0.44
DCD | -0.66
DCD | -0.85
DMRT2 | -0.67
DMRT2 | 1.29
DMRT2 | 0.83
DMRT2 | 0.58
MRPL21 | -0.16
MRPL21 | 0.35
MRPL21 | -0.06
MRPL21 | 0.17
HSD17B11 | 0.55
HSD17B11 | 0.36
HSD17B11 | -0.05
HSD17B11 | 0.17
XKRX | 1.5
XKRX | 0.46
XKRX | 1.15
XKRX | 0.09
BCAS2 | -1.42
BCAS2 | -0.77
BCAS2 | -0.73
BCAS2 | -0.15
DRD3 | -0.52
DRD3 | -1.17
DRD3 | -1.05
DRD3 | -0.09
SGPP2 | -1.37
SGPP2 | -1.87 (active)
SGPP2 | -1.56 (active)
SGPP2 | -0.98
USP12 | 0.01
USP12 | -0.01
USP12 | 0.43
USP12 | -0.23
SYPL2 | -1.21
SYPL2 | -0.84
SYPL2 | -1.26
SYPL2 | -1.38
ZC3H13 | 0.48
ZC3H13 | 2.21
ZC3H13 | 1.58
ZC3H13 | 2.95 (active)
SAMD9L | -0.61
SAMD9L | 1.77
SAMD9L | -0.32
SAMD9L | 0.94
CYP2C18 | 0.09
CYP2C18 | 0.15
CYP2C18 | 0.06
CYP2C18 | 0.51
SBSN | -1.77 (active)
SBSN | -1.61 (active)
SBSN | -1.38
SBSN | -1.35

Targets above whose target name begins with B or b (4):
gene | TNF reporter robust z-score
BCAS2 | -1.42
BCAS2 | -0.77
BCAS2 | -0.73
BCAS2 | -0.15
